Measurements published in patent US20220332795A1.
No constants are given. Whether binding was seen depends on the method and setting. Some results given as binding are weak or reduced against the parent protein; the word gives no strength.

Amino acid sequences for entries named in this document (tags omitted). A change or cut given only in a name is not applied to a line headed by its entry. Chains listed by the source or under a name are the forms on record and can include a tag or linker.
human CD71 (transferrin receptor 1) extracellular domain, recombinant, biotinylated (P02786, form named): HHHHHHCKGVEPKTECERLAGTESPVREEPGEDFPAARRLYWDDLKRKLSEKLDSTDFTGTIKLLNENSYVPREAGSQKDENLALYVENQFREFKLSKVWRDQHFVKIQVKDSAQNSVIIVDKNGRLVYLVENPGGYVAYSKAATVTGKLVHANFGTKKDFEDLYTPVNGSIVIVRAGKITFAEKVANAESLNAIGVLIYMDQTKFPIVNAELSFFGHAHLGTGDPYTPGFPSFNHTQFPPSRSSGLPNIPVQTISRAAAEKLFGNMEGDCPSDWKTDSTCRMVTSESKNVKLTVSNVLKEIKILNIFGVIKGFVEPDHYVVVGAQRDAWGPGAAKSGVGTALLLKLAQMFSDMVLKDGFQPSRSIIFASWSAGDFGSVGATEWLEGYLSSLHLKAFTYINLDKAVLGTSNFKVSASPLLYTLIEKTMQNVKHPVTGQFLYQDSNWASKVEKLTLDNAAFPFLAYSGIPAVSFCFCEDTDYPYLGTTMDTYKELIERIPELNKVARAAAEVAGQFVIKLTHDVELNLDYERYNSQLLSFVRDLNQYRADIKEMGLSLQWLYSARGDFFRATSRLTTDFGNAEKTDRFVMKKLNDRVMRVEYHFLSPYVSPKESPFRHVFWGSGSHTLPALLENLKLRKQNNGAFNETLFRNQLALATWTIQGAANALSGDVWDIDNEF

Biological target: human CD71 (transferrin receptor 1) extracellular domain, recombinant, biotinylated (human) (UniProt P02786)
Assay: hit of apical domain panning; heading of the sequence table

| Binder | binding |
| --- | --- |
| FN3 domain of SEQ ID NO: 93 (designed binder) MLPAPKNLVVSRVTEDSARLSWTAPDAAFDSFAIEYYEPVPAGEAIYLDVPGSERSYDLTGLKPGTEYDVTIYGVKGGYYSHPLFASFTT | binds |
| FN3 domain of SEQ ID NO: 94 (designed binder) MLPAPKNLVVSEVTEDSARLSWQGVARAFDSFLITYREQIFAGEVIVLTVPGSERSYDLTGLKPGTEYPVWIQGVKGGSPSAPLSAIFTT | binds |
| FN3 domain of SEQ ID NO: 95 (designed binder) MLPAPKNLVVSEVTEDSARLSWQGVARAFDSFLITYREQIFAGEVIVLTVPGSERSYDLTGLKPGTEYPVWIQGVKGGSPSAPLSAEFTT | binds |
| FN3 domain of SEQ ID NO: 96 (designed binder) MSLPAPKNLVVSRVTEDSARLSWTAPDAAFDSFPIAYLEVFYEGEAIVLTVPGSERSYDLTGLKPGTEYQVPIEGVKGGAMSLPLSAIFTT | binds |
| FN3 domain of SEQ ID NO: 97 (designed binder) MLPAPKNLVVSRVTEDSARLSWTAPDAAFDSFHIWYEEETTIGEAIYLHVPGSERSYDLTGLKPGTEYEVHITGVKGGPYSRPLFANFTT | binds |
| FN3 domain of SEQ ID NO: 99 (designed binder) MLPAPKNLVVSRVTEDSARLSWTAPDAAFDSFFIPYAEPSPTGEAIVLTVPGSERSYDLTGLKPGTEYSVLIHGVKGGHLSDPLSVIFTT | binds |
| FN3 domain of SEQ ID NO: 100 (designed binder) MLPAPKNLVVSRVTEDSARLSWTAPDAAFDSFYIWYEEVMYLGEAIVLTVPGSERSYDLTGLKPGTEYNVPIPGVKGGHSSPPLSAIFTT | binds |
| FN3 domain of SEQ ID NO: 102 (designed binder) MLPAPKNLVVSRVTEDSARLSWQGVARAFDSFLITYREQIFAGEVIVLTVPGSERSYDLTGLKPGTEYPVWIQGVKGGSPSAPLSAEFTT | binds |
